The campaign covered roughly 330,000 compounds. About 7,700 (2.3%) were called active. The inconclusive results got no clear call from the source; some entries with a clear call stand among them for comparison. The call rests on the fitted dose curve; in most records, active means well fitted inhibition curve with a large enough effect; inconclusive means small, poorly fitted or top-dose-only effect, or effect the other way; inactive means flat fitted curve, though single readings scatter. Potencies of inconclusive entries are doubtful fits and often do not repeat.
experiment: qHTS screen for small molecules that inhibit ELG1-dependent DNA repair in human embryonic kidney (HEK293T) cells expressing luciferase-tagged ELG1; conditions: HEK293T ELG1-luciferase reporter, luminescence, 16 h, DNA damage induced by 5-fluorouridine; series mostly up to 46.1 µM; further: nearly all actives have a fitted effect of over 55% in size
In short: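 Cells (2,000 per well) received 5-fluorouridine plus test compound or DMSO and were incubated 16 hr at 37 °C, 5% CO2. Luciferase activity was read by luminescence 30 min after ONE-Glo addition; signal suppression marked inhibition of damage-induced ELG1 function.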
Potency means the concentration at half of the fitted maximal effect.

| Compound | Potency |
| --- | --- |
| Cc1cc2oc(=O)cc(CN3CCN(Cc4ccccc4)CC3)c2cc1O | inactive |
| CNC(C)C(=O)NC(C(=O)N1CCCC1C(=O)NNc1ccccc1)C(C)C (centres undefined) | inactive |
| O=C(O)c1cccc(N/N=C/c2cccnc2)c1 | inconclusive: 1.83 µM [activator, partial curve] |
| O=C(CCc1nc2sc3c(c2c(=O)[nH]1)CCCC3)N1CCN(c2ccccc2)CC1 | inactive |
| CCc1nc2c(C#N)c(-c3ccc(Cl)cc3)ccn2n1 | inconclusive: 20.6 µM [activator, partial curve, poor fit] |
| CCOc1ccc(C(CCc2ccccc2)NC(=O)c2ccccc2)cc1OCC (centres undefined) | inactive |
| CN1C(=O)C2(N=c3ccccc3=N2)c2ccccc21 | inactive |
| NS(=O)(=O)c1ccc(N2CCN(CCOc3ccc(Cl)cc3)CC2)nc1 | inconclusive: 5.8 µM [inhibitor, full curve] |
| CCN(CC)S(=O)(=O)c1cccc(C(=O)N2CCCCC2)c1 | inactive |
| Clc1ccc(-c2ncc3ccccn23)cc1 | inconclusive: 20.6 µM [inhibitor, single point] |
| COc1ccc(CCn2c(C)cc(C(=O)CSc3nnc(N)s3)c2C)cc1 | inconclusive: 16.4 µM [inhibitor, partial curve, poor fit] |
| COC(=O)c1cn(C(=O)OC)c2ccccc12 | inconclusive: 2.31 µM [activator, full curve, poor fit] |
| C=CCc1c(C)nc2c(-c3ccccc3)cnn2c1N1CCOCC1 | inconclusive: 14.6 µM [activator, partial curve] |
| CC(=O)N(C)c1ccc(NC(=O)Nc2cccc3ccccc23)cc1 | inconclusive: 16.4 µM [activator, partial curve] |
| Cc1ccc(C)c(Cn2nnc3c(=O)[nH]c(C(=O)NCc4ccco4)nc32)c1 | inactive |
| CCc1ccc(Oc2coc3cc(O)ccc3c2=O)cc1 | inconclusive: 16.4 µM [activator, partial curve] |
| Oc1ccc2ccccc2c1C=NC12CN3CCN(CN(C3)C1)C2 | inactive |
| COC(=O)c1ccc(NC(=O)C2CCCN2S(=O)(=O)c2ccc(OC)cc2)cc1 (centres undefined) | inconclusive: 23.1 µM [inhibitor, partial curve, poor fit] |
| CCCOc1cccc(-c2nn(-c3ccccc3)cc2/C=C(\C#N)C(=O)NCCCn2ccnc2)c1 | inconclusive: 23.1 µM [inhibitor, single point] |
| CCOC(=O)N1CCN(C(=O)c2ccc3c(c2)NC(=O)/C(=C\c2ccc(OC)c(OC)c2)S3)CC1 | inconclusive: 23.1 µM [inhibitor, single point] |
| COc1ccccc1NC(=O)c1ccc(NC(=O)COC(=O)c2cncc(Br)c2)cc1 | inconclusive: 0.0041 µM [inhibitor, full curve, poor fit] |
| CCc1ccc(S(=O)(=O)/N=C2\C=C(Nc3ccc(C(=O)O)cc3)C(=O)c3ccccc32)cc1 | active: 4.61 µM |

By substructure, those above with a COOH group (2)

| Compound | Potency |
| --- | --- |
| O=C(O)c1cccc(N/N=C/c2cccnc2)c1 | inconclusive: 1.83 µM [activator, partial curve] |
| CCc1ccc(S(=O)(=O)/N=C2\C=C(Nc3ccc(C(=O)O)cc3)C(=O)c3ccccc32)cc1 | active: 4.61 µM |

More results follow:

| Compound | Potency |
| --- | --- |
| CN(c1ccc(OCc2nnc(-c3ccccc3)o2)cc1)S(=O)(=O)c1ccccc1 | inconclusive: 5.17 µM [inhibitor, single point] |
| Clc1ccc(-c2nn3c(-c4ccncc4)nnc3s2)c(Cl)c1 | inconclusive: 4.11 µM [inhibitor, partial curve] |
| COc1cc(/C=N/Nc2ccc(C(F)(F)F)cn2)ccc1O | inconclusive: 23.1 µM [activator, single point] |
| COc1cccc(/C=N/Nc2nc3ccccc3[nH]2)c1OC | inconclusive: 3.66 µM [activator, partial curve] |
| C[C@H](CO)N1C[C@H](C)[C@@H](CN(C)S(C)(=O)=O)Oc2ccc(NS(=O)(=O)c3ccccc3)cc2C1=O | inactive |
| Cc1nc(-n2[nH]c3c(c2=O)CCCC3)[nH]c(=O)c1Cc1ccccc1 | inconclusive: 12.6 µM [inhibitor, partial curve, poor fit] |
| Cc1nn(C(=O)N(C)C)c(C)c1CN1C(=O)c2ccccc2C1=O | inactive |
| CCOC(=O)c1ccc(-n2[nH]c(-c3ccccc3)cc2=O)cc1 | inconclusive: 18.4 µM [inhibitor, single point] |
| CCN(CC)C(=O)CSc1nc2[nH]ncc2c(=O)[nH]1 | inconclusive: 32.6 µM [activator, partial curve, poor fit] |
| O=C(COc1cccnc1[N+](=O)[O-])Nc1ccc2c(c1)OCO2 | inconclusive: 23.1 µM [activator, partial curve, poor fit] |
| Cc1ccc(C(C)C)c(OCC(=O)Nc2ccc(Cl)cn2)c1 | inactive |
| NS(=O)(=O)c1ccc(-c2ccc(/C=C3\SC(=S)N(C4CCS(=O)(=O)C4)C3=O)o2)cc1 (centres undefined) | inconclusive: 29.1 µM [inhibitor, single point] |
| COc1cc(/C=N/NC(=O)CCOc2ccccc2C)cc(Br)c1O | inconclusive: 29.1 µM [inhibitor, single point] |
| Cc1nc(N2CCN(c3ccccn3)CC2)c2c(C)c(C(=O)Nc3c(C)cc(Br)cc3C)sc2n1 | inconclusive: 11.6 µM [inhibitor, partial curve] |
| O=C(CSc1ccc2c(c1)OCCO2)Nc1ncc(Cl)cc1Cl | inconclusive: 25.9 µM [inhibitor, partial curve] |
| CCCCCCOC(=O)Sc1nc2ccccc2o1 | inactive |
| COC1=C/C(=C/c2c(O)c(C#N)c3ccccn23)C=CC1=O | inconclusive: 18.3 µM [activator, single point] |
| CCC(C)NCCOCCOc1ccc(Br)cc1 (centres undefined) | inactive |
| Cc1nc(NC(=O)c2ccccc2)sc1-c1csc(NCc2ccccc2)n1 | active: 20.6 µM |
| Cc1ccc(-c2nc(N)n(C(=O)Cc3ccccc3)n2)cc1 | inconclusive: 18.4 µM [activator, single point] |
| CC1CCCC(NC(=O)C2CCC(CNc3c(N4CCCCC4)c(=O)c3=O)CC2)C1C (centres undefined) | inconclusive: 20.6 µM [inhibitor, partial curve] |
| CCCC1(CCC)NC(=O)N(CC(=O)Nc2ccc(Cl)c(S(=O)(=O)N3CCOCC3)c2)C1=O | inconclusive: 29.1 µM [inhibitor, single point] |

— PubChem BioAssay AID504467 (National Center for Advancing Translational Sciences (NCATS), 2011)
